Measured values as given in the supplement of paper PMC11438910.
This is one part of the list. Most of these values are background signal.

What was measured:
Assay in all cases: fluorescence intensity of antibody binding to polysaccharide-coupled beads; higher = stronger binding
[1] = target: pneumococcal polysaccharide Pn7C
[2] = target: pneumococcal polysaccharide Pn7F
[3] = target: pneumococcal polysaccharide Pn8
[4] = target: pneumococcal polysaccharide Pn9A
[5] = target: pneumococcal polysaccharide Pn9L
[6] = target: pneumococcal polysaccharide Pn9N
[7] = target: pneumococcal polysaccharide Pn9V
[8] = antibody concentration 2337.65 ng/mL
[9] = antibody concentration 12500 ng/mL
[10] = antibody concentration 0.1 ng/mL
[11] = antibody concentration 0.534724 ng/mL
[12] = antibody concentration 2.8593 ng/mL
[13] = antibody concentration 15.2894 ng/mL
[14] = antibody concentration 81.7561 ng/mL
[15] = antibody concentration 437.17 ng/mL

B1: 3S41.4 (protein)
chain 1: EVQLVESGGGLVQPGGSLRLSCATSGFTFSNYWMYWFRQAPGKGLEWVSTISGSSTNTYYSGSVKGRFTISRDNAKNTLYLQMNSLRAEDTAVYYCARRGTDSSHWYFDLWGPGTPITVSS
chain 2: EIVMTQSPATLSLSPGERATLSCRASQSVSSNLAWYQQKPGQGPRLLIYDASNRATGIPDRFGGSGSGTDFTLTISSLEPEDVGVYYCQQESNWPLTFGGGTKVEIK
- fluorescence intensity [1, 8]: 20.5 MFI
- fluorescence intensity [1, 9]: 45.5 MFI
- fluorescence intensity [2, 10]: 15 MFI
- fluorescence intensity [2, 11]: 14.5 MFI
- fluorescence intensity [2, 12]: 13 MFI
- fluorescence intensity [2, 13]: 14 MFI
- fluorescence intensity [2, 14]: 15.5 MFI
- fluorescence intensity [2, 15]: 15.5 MFI
- fluorescence intensity [2, 8]: 24.5 MFI
- fluorescence intensity [2, 9]: 102 MFI
- fluorescence intensity [3, 10]: 21.5 MFI
- fluorescence intensity [3, 11]: 21.5 MFI
- fluorescence intensity [3, 12]: 21 MFI
- fluorescence intensity [3, 13]: 21 MFI
- fluorescence intensity [3, 14]: 22.5 MFI
- fluorescence intensity [3, 15]: 23.5 MFI
- fluorescence intensity [3, 8]: 29 MFI
- fluorescence intensity [3, 9]: 50 MFI
- fluorescence intensity [4, 10]: 20.5 MFI
- fluorescence intensity [4, 11]: 18.5 MFI
- fluorescence intensity [4, 12]: 19.2 MFI
- fluorescence intensity [4, 13]: 19 MFI
- fluorescence intensity [4, 14]: 18 MFI
- fluorescence intensity [4, 15]: 19.8 MFI
- fluorescence intensity [4, 8]: 24.5 MFI
- fluorescence intensity [4, 9]: 58.2 MFI
- fluorescence intensity [5, 10]: 18 MFI
- fluorescence intensity [5, 11]: 16.8 MFI
- fluorescence intensity [5, 12]: 16.5 MFI
- fluorescence intensity [5, 13]: 18 MFI
- fluorescence intensity [5, 14]: 18.5 MFI
- fluorescence intensity [5, 15]: 16.5 MFI
- fluorescence intensity [5, 8]: 21.5 MFI
- fluorescence intensity [5, 9]: 43 MFI
- fluorescence intensity [6, 10]: 15.5 MFI
- fluorescence intensity [6, 11]: 15.8 MFI
- fluorescence intensity [6, 12]: 16 MFI
- fluorescence intensity [6, 13]: 15.5 MFI
- fluorescence intensity [6, 14]: 15.2 MFI
- fluorescence intensity [6, 15]: 17 MFI
- fluorescence intensity [6, 8]: 21.5 MFI
- fluorescence intensity [6, 9]: 40.5 MFI
- fluorescence intensity [7, 10]: 13.5 MFI
- fluorescence intensity [7, 11]: 15 MFI
- fluorescence intensity [7, 12]: 14 MFI
- fluorescence intensity [7, 13]: 13.5 MFI
- fluorescence intensity [7, 14]: 14.5 MFI
- fluorescence intensity [7, 15]: 15 MFI
- fluorescence intensity [7, 8]: 18 MFI
- fluorescence intensity [7, 9]: 26 MFI
